The target in assay [1] is E. coli BMP-7 monomer (mature BMP-7 deleted for its first seven residues, from plasmid pALBMP7-981) (human) (UniProt P18075). Nature of the assay: co-refolding of E. coli monomers, C4 HPLC and SDS-PAGE.
Assay [2] concerns the target T1, E. coli BMP-3 monomer (a form of mature BMP-3 from plasmid pAIB3-782) (human) (UniProt P12645).
T1 sequence (looked up): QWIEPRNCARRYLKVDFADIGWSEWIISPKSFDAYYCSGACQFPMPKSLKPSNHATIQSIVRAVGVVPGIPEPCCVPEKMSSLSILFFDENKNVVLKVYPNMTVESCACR
Nature of the assay: co-refolding of E. coli monomers, SDS-PAGE with and without reduction.

By UniProt entry, the sequences of proteins in these tests, tags left out. Where a name states a change or a piece, a line headed by the entry shows the natural chain unless it says otherwise.
UniProt P18075: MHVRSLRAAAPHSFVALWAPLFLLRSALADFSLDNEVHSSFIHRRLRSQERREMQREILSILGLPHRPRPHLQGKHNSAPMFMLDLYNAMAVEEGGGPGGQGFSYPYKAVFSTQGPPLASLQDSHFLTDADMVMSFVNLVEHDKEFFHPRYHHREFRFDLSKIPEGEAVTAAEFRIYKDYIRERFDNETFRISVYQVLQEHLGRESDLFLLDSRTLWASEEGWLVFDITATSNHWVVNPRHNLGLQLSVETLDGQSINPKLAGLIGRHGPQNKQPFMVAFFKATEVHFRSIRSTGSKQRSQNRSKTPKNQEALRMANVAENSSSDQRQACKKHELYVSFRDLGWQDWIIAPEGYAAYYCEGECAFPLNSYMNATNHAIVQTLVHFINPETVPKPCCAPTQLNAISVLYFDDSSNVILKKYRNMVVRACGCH

For assay [3], the target named is BMP-7 subunit (CHO-produced) (human) (UniProt P18075). Description: two-dimensional non-reducing/reducing gel of labelled and purified protein from co-expressing CHO cells (disulfide-linked heterodimer).
For assay [4] the target is unchanged. Nature of the assay: co-immunoprecipitation with an antibody to one subunit, Western with an antibody to the other.

No constants are given. Whether binding was seen depends on the method and setting. For some of these results: Binding seen in cells or lysates may run through a third protein. Some entries that bind do so weakly or less than the wild type.

B1: E. coli BMP-2 monomer (mature portion of BMP-2 from plasmid pALBP2-781) (ligand)
chain: MQAKHKQRKRLKSSCKRHPLYVDFSDVGWNDWIVAPPGYHAFYCHGECPFPLADHLNSTNHAIVQTLVNSVNSKIPKACCVPTELSAISMLYLDENEKVVLKNYQDMVVEGCGCR
Consider B1, for which the binding result in assay [1] and in assay [2] was “binds” throughout.

B2: BMP-2 subunit beginning with amino acid #283 (CHO-produced) (ligand)
chain: QAKHKQRKRLKSSCKRHPLYVDFSDVGWNDWIVAPPGYHAFYCHGECPFPLADHLNSTNHAIVQTLVNSVNSKIPKACCVPTELSAISMLYLDENEKVVLKNYQDMVVEGCGCR
notes: also called mature BMP-2 subunit
As to B2, the binding entry in assay [3] and in assay [4] was “binds” throughout.

Source of the values: US7678885 (GENETICS INSTITUTE, dated 2010).
